# Laboratory results: the supplement of paper PMC10470496
# Counter-ions that a name gives are not always drawn. The list shows a part of the results. Repeats are few or missing, and single values can be far off.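 The strains were three CDC resistance-bank clinical C. auris isolates from clades III, IV and I, cultured in RPMI-1640 at 35°C. Growth was background-corrected OD600 versus vehicle-only wells on the same plate. A hit needed >50% inhibition in two or more strains plus a plate-corrected B-score exceeding 0.1.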
# System: C. auris AR-386
# Assay: growth relative to vehicle control (OD600 ratio) (fraction); higher = less inhibition
# Details: 10 µM; 24 h
row,Structure (SMILES),growth
1,O=C(O)C1(C(=O)O)CCC1.[NH2-].[NH2-].[Pt+2] [Carboplatin],1.13
2,COc1cc(N)c(Cl)cc1C(=O)NC1CCN(CCCOc2ccc(F)cc2)CC1OC (stereo not given) [Cisapride hydrate],0.7
3,CC(=O)O[C@]1(C(C)=O)CC[C@H]2[C@@H]3C[C@H](C)C4=CC(=O)CC[C@]4(C)[C@H]3CC[C@@]21C [Medroxyprogesterone acetate],1.34
4,O=C1C(O)=C([C@H]2CC[C@H](c3ccc(Cl)cc3)CC2)C(=O)c2ccccc21 [Atovaquone],0.72
5,COc1ccccc1Oc1c(NS(=O)(=O)c2ccc(C(C)(C)C)cc2)nc(-c2ncccn2)nc1OCCO [Bosentan Hydrate],0.6
6,N=C(N)NCCC[C@H](N)C(=O)O [L-Arginine HCl (L-Arg)],0.66
7,CC(C)Cc1ccc(C(C)C(=O)O)cc1 (stereo not given) [Ibuprofen Lysine],1.17
8,COc1ccc2cc([C@H](C)C(=O)O)ccc2c1 [Naproxen Sodium],0.77
9,Cc1cccc(-c2nn3c(c2-c2ccnc4ccc(C(N)=O)cc24)CCC3)n1,1.03
10,COc1ccc(C(=O)c2ccccc2)c(O)c1 [Oxybenzone],0.93
11,CO/N=C(\C(=O)N[C@@H]1C(=O)N2C(C(=O)OCOC(=O)C(C)(C)C)=C(/C=C\c3scnc3C)CS[C@H]12)c1csc(N)n1 [Cefditoren Pivoxil],0.72
12,CC(C(=O)O)c1cccc(Oc2ccccc2)c1 (stereo not given) [Fenoprofen Calcium],1.16
13,NC(=O)c1cnccn1 [Pyrazinamide],0.75
14,CSc1nc2cc(Cl)c(Oc3cccc(Cl)c3Cl)cc2[nH]1 [Triclabendazole],0.76
15,Cn1nnc2c(C(N)=O)ncn2c1=O [Temozolomide],0.91
16,CCCSc1ccc2[nH]c(NC(=O)OC)nc2c1 [Albendazole],0.95
17,CC(=O)O[C@]1(C(C)=O)CC[C@H]2[C@@H]3C[C@H](C)C4=CC(=O)C=C[C@]4(C)[C@@]3(F)[C@@H](O)C[C@@]21C [Fluorometholone Acetate],1.32
18,CC(C)CCCCC(=O)N[C@@H](CCN)C(=O)N[C@H](C(=O)N[C@@H](CCN)C(=O)N[C@H]1CCNC(=O)[C@H]([C@@H](C)O)NC(=O)[C@H](CCN)NC(=O)[C@H](CCN)NC(=O)[C@H](CC(C)C)NC(=O)[C@@H](Cc2ccccc2)NC(=O)[C@H](CCN)NC1=O)[C@@H](C)O [Polymyxin B sulphate],0.92
19,NCCc1c[nH]cn1 [Histamine 2HCl],0.81
20,O=c1[nH]c(=O)n([C@H]2C[C@H](O)[C@@H](CO)O2)cc1F [Floxuridine],0.58
21,N[C@@H](Cc1cc(I)c(Oc2cc(I)c(O)c(I)c2)c(I)c1)C(=O)O [L-Thyroxine],1
22,OC(Cn1cncn1)(Cn1cncn1)c1ccc(F)cc1F [Fluconazole],0.83
23,C#Cc1cccc(Nc2ncnc3cc(OC)c(OCCCCCCC(=O)NO)cc23)c1,1
24,CCCc1nc(C)c2c(=O)nc(-c3cc(S(=O)(=O)N4CCN(CC)CC4)ccc3OCC)[nH]n12 [Vardenafil HCl Trihydrate],0.84
25,CCn1cc(C(=O)O)c(=O)c2cc(F)c(N3CCNCC3)nc21 [Enoxacin],1.06

# From no. 9 as far as 10, copied from above:
row,Structure (SMILES),growth
9,Cc1cccc(-c2nn3c(c2-c2ccnc4ccc(C(N)=O)cc24)CCC3)n1,1.03
10,COc1ccc(C(=O)c2ccccc2)c(O)c1 [Oxybenzone],0.93
